PubChem BioAssay AID686937, Drosophila RNAi Screening Center | 2013
Purpose: 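Knock-downs that reduce output of a secreted reporter enzyme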 (primary screen). Cells: Drosophila S2 cells expressing secreted horseradish peroxidase. Knock-down reagent: long dsRNA against Drosophila genes. Duration: about 5.5 days (5 days dsRNA, then 12 h reporter induction). Conditions: reporter expression induced after 5 days of dsRNA, read 12 h later; inducer not stated. Detection: 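Chemiluminescent measurement of peroxidase in the medium 12 h after reporter induction, following 5 days of dsRNA, given as a z-score per plate; higher means more secretion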. Scale: z-score: higher = more reporter secreted into medium.
The screen tested about 23,000 reagents; below is a random part of those with a known target gene and a result. 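Reduced-secretion tags in replicate 1 do not always agree with the z-scores; no criterion for assigning the tags was given.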 A plus sign joins genes that one reagent is predicted to hit. Further read-outs or replicates are left out here. The record does not give: the amount of reagent.

RpL35 [SID104198139] | z-score, replicate 1 = -2.2
CG32305 [SID104188406] | z-score, replicate 1 = 0.13
Gpo1 [SID104186920] | z-score, replicate 1 = 0.37
CG7029 [SID104195969] | z-score, replicate 1 = -1
Skp2 + CG14645 [SID104192023] | z-score, replicate 1 = 0.05
CG13272 [SID104182041] | z-score, replicate 1 = 0.13
CG13272 [SID104202268] | z-score, replicate 1 = -0.19
Rpn12R [SID104189634] | z-score, replicate 1 = 0.44
CG18368 [SID104186523] | z-score, replicate 1 = 0.3
Stat92E [SID104196662] | z-score, replicate 1 = 0.18
cyp33 [SID104187392] | z-score, replicate 1 = -3.87
Ythdc1 [SID104187933] | z-score, replicate 1 = 0.74
CG8176 [SID104196186] | z-score, replicate 1 = 0.35
CG2256 [SID104198012] | z-score, replicate 1 = 0.26
mal [SID104200373] | z-score, replicate 1 = 0.28
Sf3a2 [SID104189593] | z-score, replicate 1 = -2.49
TbCMF46 [SID104182013] | z-score, replicate 1 = 0.08

As entered above.
Result of RpL35 [SID104198139] in “z-score, replicate 1”: -2.2
Under “z-score, replicate 1”, Skp2 + CG14645 [SID104192023] is entered as 0.05
For “z-score, replicate 1”, CG13272 [SID104182041] is entered as 0.13
CG2256 [SID104198012], z-score, replicate 1: 0.26

More results follow.
btz [SID104194358] | z-score, replicate 1 = 0.37
CG14757 [SID104186284] | z-score, replicate 1 = 0.24
Mbs [SID104189206] | z-score, replicate 1 = 0.78
Mbs [SID104190317] | z-score, replicate 1 = 0.35
Mbs [SID104190345] | z-score, replicate 1 = 0.48
CG7231 [SID104182826] | z-score, replicate 1 = 0.35
CG31826 [SID104183149] | z-score, replicate 1 = 0.16
Pepck1 [SID104187297] | z-score, replicate 1 = 0.31
Rm62 [SID104192157] | z-score, replicate 1 = -0.19
CG18130 [SID104199582] | z-score, replicate 1 = 0.45
